Measurements reported in doi:10.1101/376103.
Like-named read-outs stand apart in the source and are kept apart here. No constants are given. Whether binding was seen depends on the method and setting. Binding seen in cells or lysates may run through a third protein. Some entries that bind do so weakly or less than the wild type. Tags and fused reporters may be left off the sequences shown.

Protein sequences, listed by entry. Tags and fused reporters are not part of them. Lines headed by an entry give the natural chain unless they say otherwise; changes in a name come on top. Residues count along the entry.
UniProt Q04206, whole entry: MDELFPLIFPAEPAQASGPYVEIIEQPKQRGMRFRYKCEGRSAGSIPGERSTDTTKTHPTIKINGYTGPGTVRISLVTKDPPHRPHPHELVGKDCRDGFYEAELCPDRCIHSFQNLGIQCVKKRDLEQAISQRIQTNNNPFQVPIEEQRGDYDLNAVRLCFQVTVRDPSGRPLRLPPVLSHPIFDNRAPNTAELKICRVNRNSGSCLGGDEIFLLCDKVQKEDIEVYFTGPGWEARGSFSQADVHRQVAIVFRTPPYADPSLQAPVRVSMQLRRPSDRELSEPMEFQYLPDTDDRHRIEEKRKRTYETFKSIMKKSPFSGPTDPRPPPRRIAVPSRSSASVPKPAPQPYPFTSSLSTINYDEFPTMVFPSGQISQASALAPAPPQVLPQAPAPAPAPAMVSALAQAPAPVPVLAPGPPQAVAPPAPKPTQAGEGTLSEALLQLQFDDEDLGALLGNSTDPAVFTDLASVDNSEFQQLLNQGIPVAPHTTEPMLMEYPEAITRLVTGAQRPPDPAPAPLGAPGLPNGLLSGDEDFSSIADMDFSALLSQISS
UniProt Q04206, 1-90: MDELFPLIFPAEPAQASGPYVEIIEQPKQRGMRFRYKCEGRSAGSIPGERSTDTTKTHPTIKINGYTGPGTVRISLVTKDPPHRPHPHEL

Tests used:
GST-TC45 = molecular target: T1, GST-TC45 (UniProt P17706); assay: pull-down
T1 sequence: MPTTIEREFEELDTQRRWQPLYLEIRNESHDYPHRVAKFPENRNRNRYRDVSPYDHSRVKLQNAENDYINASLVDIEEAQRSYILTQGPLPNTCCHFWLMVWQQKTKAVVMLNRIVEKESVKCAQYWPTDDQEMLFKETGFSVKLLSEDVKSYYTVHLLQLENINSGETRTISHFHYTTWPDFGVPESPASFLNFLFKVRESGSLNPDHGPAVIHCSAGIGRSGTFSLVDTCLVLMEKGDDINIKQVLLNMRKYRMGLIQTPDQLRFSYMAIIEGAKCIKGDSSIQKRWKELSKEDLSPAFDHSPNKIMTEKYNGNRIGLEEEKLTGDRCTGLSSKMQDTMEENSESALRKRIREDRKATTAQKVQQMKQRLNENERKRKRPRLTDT

Myc-GdX [1] = molecular target: T2, Myc-GdX (UniProt P11441); assay: co-IP
T2 sequence: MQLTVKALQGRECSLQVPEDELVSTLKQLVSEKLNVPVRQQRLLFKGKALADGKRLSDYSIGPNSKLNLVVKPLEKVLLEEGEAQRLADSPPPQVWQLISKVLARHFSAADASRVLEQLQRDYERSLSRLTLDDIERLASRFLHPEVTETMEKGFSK

HA-TC45 [2] = molecular target: T3, HA-TC45 (UniProt P17706); assay: co-IP
T3 sequence: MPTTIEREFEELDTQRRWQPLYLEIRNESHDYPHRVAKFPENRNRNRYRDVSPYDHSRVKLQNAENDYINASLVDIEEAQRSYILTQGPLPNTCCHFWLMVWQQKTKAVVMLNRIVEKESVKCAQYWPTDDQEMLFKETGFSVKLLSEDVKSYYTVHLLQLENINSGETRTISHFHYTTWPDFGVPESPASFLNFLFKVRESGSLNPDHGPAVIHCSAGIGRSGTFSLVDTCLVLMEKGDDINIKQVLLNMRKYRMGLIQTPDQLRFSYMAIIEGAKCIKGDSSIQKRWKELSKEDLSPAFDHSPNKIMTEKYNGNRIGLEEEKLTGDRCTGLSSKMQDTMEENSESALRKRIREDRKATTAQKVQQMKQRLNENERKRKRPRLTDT

HA-TC45 [3] = molecular target: T3, HA-TC45; assay: co-IP; remark: listed apart in the source
Flag-p65 = Flag-p65 (UniProt Q04206); assay: co-IP
Myc-GdX [4] = molecular target: T2, Myc-GdX; assay: co-IP; remark: listed apart in the source
Flag-tagged IKKε = molecular target: T4, Flag-tagged IKKε (UniProt Q14164); assay: co-IP
T4 sequence: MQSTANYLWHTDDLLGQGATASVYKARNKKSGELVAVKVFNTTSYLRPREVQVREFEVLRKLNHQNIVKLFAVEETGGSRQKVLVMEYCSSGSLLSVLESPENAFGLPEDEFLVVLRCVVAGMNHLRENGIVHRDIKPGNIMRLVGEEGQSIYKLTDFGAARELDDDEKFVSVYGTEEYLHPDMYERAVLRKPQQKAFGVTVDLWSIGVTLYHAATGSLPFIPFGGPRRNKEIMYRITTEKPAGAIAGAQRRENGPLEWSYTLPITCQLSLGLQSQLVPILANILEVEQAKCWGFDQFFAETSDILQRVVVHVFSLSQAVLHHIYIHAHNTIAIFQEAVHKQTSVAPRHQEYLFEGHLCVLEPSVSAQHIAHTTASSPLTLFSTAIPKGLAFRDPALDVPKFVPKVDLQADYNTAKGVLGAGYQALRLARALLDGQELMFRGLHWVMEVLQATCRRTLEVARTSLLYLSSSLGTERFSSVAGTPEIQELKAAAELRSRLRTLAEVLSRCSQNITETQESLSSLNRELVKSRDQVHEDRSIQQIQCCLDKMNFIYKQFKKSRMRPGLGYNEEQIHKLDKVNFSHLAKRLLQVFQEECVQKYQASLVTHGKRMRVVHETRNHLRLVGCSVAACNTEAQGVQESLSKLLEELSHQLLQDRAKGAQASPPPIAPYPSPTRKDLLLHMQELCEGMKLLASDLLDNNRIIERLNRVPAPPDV

Flag-tagged WIP1 = molecular target: T5, Flag-tagged WIP1 (UniProt O15297); assay: co-IP
T5 sequence: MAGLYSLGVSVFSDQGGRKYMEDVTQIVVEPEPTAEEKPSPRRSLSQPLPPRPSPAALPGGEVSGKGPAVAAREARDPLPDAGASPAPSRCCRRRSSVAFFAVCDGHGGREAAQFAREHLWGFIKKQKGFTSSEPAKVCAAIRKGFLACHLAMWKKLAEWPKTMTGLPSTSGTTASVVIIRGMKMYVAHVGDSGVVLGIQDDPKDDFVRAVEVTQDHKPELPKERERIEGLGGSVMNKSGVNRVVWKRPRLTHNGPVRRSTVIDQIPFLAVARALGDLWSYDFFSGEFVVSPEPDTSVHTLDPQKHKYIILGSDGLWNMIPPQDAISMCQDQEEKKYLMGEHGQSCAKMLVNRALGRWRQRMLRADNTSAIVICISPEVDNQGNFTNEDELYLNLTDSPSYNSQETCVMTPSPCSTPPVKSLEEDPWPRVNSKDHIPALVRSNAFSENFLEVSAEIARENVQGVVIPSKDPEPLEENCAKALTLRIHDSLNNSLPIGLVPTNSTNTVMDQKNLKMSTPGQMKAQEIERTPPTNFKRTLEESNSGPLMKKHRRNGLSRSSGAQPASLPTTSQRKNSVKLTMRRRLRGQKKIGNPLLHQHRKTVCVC

HA-TC45 [5] = molecular target: T3, HA-TC45; assay: co-IP; remark: listed apart in the source
Flag-tagged IKKα = molecular target: T6, Flag-tagged IKKα (UniProt O15111); assay: co-IP
T6 sequence: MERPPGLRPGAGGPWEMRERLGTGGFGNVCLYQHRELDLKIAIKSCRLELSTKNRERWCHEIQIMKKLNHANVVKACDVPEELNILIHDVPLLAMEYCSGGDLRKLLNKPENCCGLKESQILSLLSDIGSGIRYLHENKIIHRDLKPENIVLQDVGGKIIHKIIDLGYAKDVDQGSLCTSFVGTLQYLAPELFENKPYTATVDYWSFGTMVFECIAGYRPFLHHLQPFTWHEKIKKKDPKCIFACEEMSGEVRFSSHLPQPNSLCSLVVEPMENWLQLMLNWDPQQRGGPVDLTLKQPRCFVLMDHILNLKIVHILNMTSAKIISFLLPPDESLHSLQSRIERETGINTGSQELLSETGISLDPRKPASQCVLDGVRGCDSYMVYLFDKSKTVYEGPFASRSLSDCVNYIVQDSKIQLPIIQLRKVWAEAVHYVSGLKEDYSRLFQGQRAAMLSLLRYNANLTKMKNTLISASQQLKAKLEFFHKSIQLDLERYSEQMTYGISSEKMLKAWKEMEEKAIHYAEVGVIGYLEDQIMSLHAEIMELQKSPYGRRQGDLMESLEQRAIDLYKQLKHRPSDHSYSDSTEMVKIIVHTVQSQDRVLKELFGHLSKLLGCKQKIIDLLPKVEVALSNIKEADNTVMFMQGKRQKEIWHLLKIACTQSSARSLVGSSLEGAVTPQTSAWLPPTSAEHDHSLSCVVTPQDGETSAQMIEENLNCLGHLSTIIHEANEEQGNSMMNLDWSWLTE

Flag-tagged IKKβ = molecular target: T7, Flag-tagged IKKβ (UniProt O14920); assay: co-IP
T7 sequence: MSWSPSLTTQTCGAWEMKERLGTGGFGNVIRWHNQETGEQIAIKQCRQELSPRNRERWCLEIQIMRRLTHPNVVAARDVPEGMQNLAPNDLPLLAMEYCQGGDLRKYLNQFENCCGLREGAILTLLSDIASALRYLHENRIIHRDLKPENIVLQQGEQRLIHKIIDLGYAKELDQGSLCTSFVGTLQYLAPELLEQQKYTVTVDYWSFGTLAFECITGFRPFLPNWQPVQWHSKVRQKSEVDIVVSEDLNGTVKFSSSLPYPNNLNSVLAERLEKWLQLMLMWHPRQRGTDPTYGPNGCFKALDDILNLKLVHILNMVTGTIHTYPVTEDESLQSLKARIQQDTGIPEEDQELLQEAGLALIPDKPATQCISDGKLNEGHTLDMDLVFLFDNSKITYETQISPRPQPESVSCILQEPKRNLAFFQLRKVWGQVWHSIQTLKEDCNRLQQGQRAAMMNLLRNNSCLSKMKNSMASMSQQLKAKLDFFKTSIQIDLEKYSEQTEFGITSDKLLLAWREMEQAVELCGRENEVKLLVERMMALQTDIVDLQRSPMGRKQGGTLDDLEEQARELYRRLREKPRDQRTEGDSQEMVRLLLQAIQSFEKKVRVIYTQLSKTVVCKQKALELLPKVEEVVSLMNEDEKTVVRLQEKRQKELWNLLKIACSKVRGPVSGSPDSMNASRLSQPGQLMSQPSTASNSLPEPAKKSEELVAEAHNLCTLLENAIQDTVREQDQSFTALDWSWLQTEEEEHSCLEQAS

Flag-p65 (from UniProt Q04206 1-551)
binding (GST-TC45): binds | binding (Myc-GdX [1]): no binding | binding (HA-TC45 [2]): binds | binding (HA-TC45 [3]): binds

Flag-p65-n6 (from UniProt Q04206 1-90) (domain or fragment)
binding (HA-TC45 [3]): no binding

Flag-tagged p65(Y100F) (from UniProt Q04206 1-551)
binding (HA-TC45 [3]): no binding

Flag-tagged p65(Y152F) (from UniProt Q04206 1-551)
binding (HA-TC45 [3]): binds

endogenous p65 protein (293T cells) (from UniProt Q04206 1-551)
binding (HA-TC45 [3]): binds

B1: HA-TC45 (enzyme, UniProt P17706-2 1-387)
chain: MPTTIEREFEELDTQRRWQPLYLEIRNESHDYPHRVAKFPENRNRNRYRDVSPYDHSRVKLQNAENDYINASLVDIEEAQRSYILTQGPLPNTCCHFWLMVWQQKTKAVVMLNRIVEKESVKCAQYWPTDDQEMLFKETGFSVKLLSEDVKSYYTVHLLQLENINSGETRTISHFHYTTWPDFGVPESPASFLNFLFKVRESGSLNPDHGPAVIHCSAGIGRSGTFSLVDTCLVLMEKGDDINIKQVLLNMRKYRMGLIQTPDQLRFSYMAIIEGAKCIKGDSSIQKRWKELSKEDLSPAFDHSPNKIMTEKYNGNRIGLEEEKLTGDRCTGLSSKMQDTMEENSESALRKRIREDRKATTAQKVQQMKQRLNENERKRKRPRLTDT
binding (Flag-p65): binds | binding (Myc-GdX [4]): binds

B2: Myc-GdX (protein, UniProt P11441 1-157)
chain: MQLTVKALQGRECSLQVPEDELVSTLKQLVSEKLNVPVRQQRLLFKGKALADGKRLSDYSIGPNSKLNLVVKPLEKVLLEEGEAQRLADSPPPQVWQLISKVLARHFSAADASRVLEQLQRDYERSLSRLTLDDIERLASRFLHPEVTETMEKGFSK
binding (Flag-p65): no binding | binding (Flag-tagged IKKε): no binding | binding (Flag-tagged WIP1): no binding | binding (HA-TC45 [5]): binds | binding (Flag-tagged IKKα): no binding | binding (Flag-tagged IKKβ): no binding
